Experimental data published in PubChem BioAssay AID1688 (National Center for Advancing Translational Sciences (NCATS), 2009).
The whole screen tested about 220,000 compounds, of which about 2,400 (1.1%) were called active. The inconclusive results got no clear call from the source; some entries with a clear call stand among them for comparison. Calls come from the whole dose curve; as a rule, active = well fitted inhibition curve with a large enough effect; inconclusive = small, poorly fitted or top-dose-only effect, or effect the other way; inactive = no such curve, though single readings can be large or run the other way. Potencies beside an inconclusive call are fits to weak or partial responses and may not hold up.

experiment: qHTS Multiplex Assay to Identify Dual Action Probes in a Cell Model of Huntington: Aggregate Formation (GFP); settings: PC12 HttQ103-GFP aggregates, Acumen cytometry, 40 h; activity change, negative = inhibition: at 46.1 µM (top of the series) unless noted; note: nearly all actives have a fitted effect of over 60% in size
In short: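 Ecdysone-promoter PC12 model expressing HTT exon 1 Q103 fused to GFP, induced by tebufenozide at 100 nM final. Compounds titrated; aggregates sized 1–25 µm scored on a 488 nm laser cytometer.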
% is set by controls: 0 for no effect and ±100 for the full control effect; potency is the fitted concentration of half-maximal effect.

SMILES | Potency | activity change, negative = inhibition
COc1cccc(CNc2cccc3cccnc23)c1O | inconclusive: 3.55 µM [activator, single point] | –
O=C(NNC(=S)NC(=O)c1ccccc1[N+](=O)[O-])c1ccccc1 | inconclusive: 10 µM [inhibitor, partial curve, poor fit] | –
COc1ccc(-c2cc(C(F)F)n3ncc(C(=O)Nc4cc(C)on4)c3n2)cc1 | inconclusive: 0.1 µM [activator, full curve, poor fit] | –
CCc1cc2c(=O)c(-c3cscn3)coc2c(CN(C)C)c1O | active: 11.2 µM | –
CN(C1CCCCC1)S(=O)(=O)c1ccc(S(=O)(=O)N(CC(=O)Nc2ccccc2)C2CC2)cc1 | – | inactive: -0.885% [at 9.22 µM]
CN(C)c1ccc(Nc2nc(N)c([N+](=O)[O-])c(N3CCOCC3)n2)cc1 | inconclusive: 22.4 µM [inhibitor, partial curve] | –
COc1cc(-n2c(C)nc3cc(C(=O)N4CCOCC4)ccc32)cc(OC)c1OC | – | inactive: 13.9%
COc1cc(-c2cc(C(=O)OCC(=O)Nc3ccc4c(c3)OCO4)c3ccccc3n2)cc(OC)c1OC | inconclusive: 35.5 µM [inhibitor, single point] | –
Cc1nc2ccccc2c(=O)n1NC(=O)c1c(O)c2c(n(CC(C)C)c1=O)CCCC2 | inconclusive: 35.5 µM [inhibitor, single point] | –
CCOc1ccccc1C1CC(=O)NC2=C1C(=O)CC(C)(C)C2 (centres undefined) | active: 35.5 µM | –
CN(C)C(=O)/C(C#N)=C\c1cc(Br)c(Sc2ccc(Cl)cc2)o1 | inconclusive: 35.5 µM [inhibitor, single point] | –
O=C(/C=C/c1ccccc1)NCCSCc1ccccc1 | – | inactive: 3.9%
Cc1c(NC(=O)c2ccc3c(c2)OCO3)cccc1-c1nc2ccccc2o1 | inconclusive: 22.4 µM [inhibitor, single point] | –
c1csc(C2CCCN2c2nc3nonc3nc2NC2CC2)n1 (centres undefined) | – | inactive: 2.39% [at 9.22 µM]
CCOC(=O)c1c(C)n(C)c2ccc(OC)c(NC(=O)CN3CCN(C4CCCCC4)CC3)c12 | – | inactive: 12.4%
Clc1ccccc1-c1nn2c(Cn3cnc4ccccc43)nnc2s1 | – | inactive: -12.1%
CCOc1ccc(-c2nc(CSCC(=O)NC3CCCc4ccccc43)c(C)o2)cc1 (centres undefined) | inconclusive: 5.62 µM [inhibitor, single point] | –
O=c1nc(/C=C/c2cc([N+](=O)[O-])ccc2Cl)cc(C(F)(F)F)[nH]1 | inconclusive: 10 µM [activator, partial curve] | –
CCOc1ccc(/C(O)=C2/C(=O)C(=O)N(CCOCCO)C2c2ccccc2)cc1 (centres undefined) | inconclusive: 1.78 µM [activator, partial curve] | –

Of the compounds above, these have a Cl atom.
SMILES | Potency | activity change, negative = inhibition
CN(C)C(=O)/C(C#N)=C\c1cc(Br)c(Sc2ccc(Cl)cc2)o1 | inconclusive: 35.5 µM [inhibitor, single point] | –
Clc1ccccc1-c1nn2c(Cn3cnc4ccccc43)nnc2s1 | – | inactive: -12.1%
O=c1nc(/C=C/c2cc([N+](=O)[O-])ccc2Cl)cc(C(F)(F)F)[nH]1 | inconclusive: 10 µM [activator, partial curve] | –
